Measured values published in PubChem BioAssay AID2685 (National Center for Advancing Translational Sciences (NCATS), 2010).
Screen size: about 320,000 compounds; about 2,100 (0.66%) were called active. Inconclusive means that the source gave no clear call. Such entries were picked first, then a sample of the others. Calls come from the whole dose curve; as a rule, active = well fitted inhibition curve with a large enough effect in the signal ratio, with a control signal flat (not every such curve was filed as active); inconclusive = small, poorly fitted or top-dose-only effect, or effect the other way, or a change in a side signal; inactive = flat fitted curve, though single readings scatter; the % refers to the signal ratio. Potencies of inconclusive entries are doubtful fits and often do not repeat.

Test: qHTS Assay for Lipid Storage Modulators in Drosophila S3 Cells
Settings: BODIPY lipid droplet fluorescence, 18-24 h, cells fed with added oleic acid; lipid storage change, negative = inhibition: at 46.1 µM (top of the series) unless noted
In short: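 Drosophila S3 cells got compounds at several concentrations plus oleic acid (400 uM solution). Laser-scanning cytometry with 488 nm excitation read lipid droplets at 500-530 nm and cells at 575-640 nm. Percent activity was relative to 20 uM Triacsin C.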
% is set by controls: 0 for no effect and ±100 for the full control effect; potency is the fitted concentration of half-maximal effect.

| Structure (SMILES) | lipid storage change, negative = inhibition | Potency |
| --- | --- | --- |
| CCNC(=O)NC(=O)C(C)OC(=O)c1cccn1C (centres undefined) | inconclusive: 6.6% | – |
| C=CCn1c(COc2ccc(F)cc2)nnc1SC(C)C(=O)NCC1CCCO1 (centres undefined) | inconclusive: -43.7% | – |
| OC[C@H]1O[C@@H](Oc2ccc3cc(Br)ccc3c2)[C@H](O)[C@@H](O)[C@H]1O | inconclusive: 0.0253% | – |
| COc1cc(/C=C2/C(=O)NN(c3ccc(Cl)cc3)C2=O)ccc1OC(=O)c1ccco1 | – | inconclusive: 0.731 µM [falling, single point] |
| CC(C)Sc1nsc2nc(=O)c(/C=C3\C=Nc4ccccc43)c(N)n12 | inconclusive: -20.9% | – |
| O=C1N(O)C2(C=CCCC2)/C(=N\O)C12CCCCC2 (centres undefined) | inconclusive: -8.84% | – |
| COc1ccccc1NC(=O)c1ccc(S(=O)(=O)N2CCCC2)cc1 | inconclusive: -0.634% | – |
| C=CCn1c(SCC(=O)N2CCOCC2)nc2sc3c(c2c1=O)CCCC3 | – | inconclusive: 29.1 µM [falling, partial curve, poor fit] |
| COc1ccc2c(c1)O[C@H](c1ccc3c(c1)OCO3)[C@@H](OC(=O)Nc1cc(OC)c(OC)c(OC)c1)C2=O | inconclusive: 22.1% | – |
| COC(=O)[C@@H](Cc1c[nH]c2ccccc12)NC(=O)c1cc(=O)[nH]c2ccccc12 | inconclusive: 0.925% | – |
| Cc1ccc(/C([O-])=C(/C(=S)NCc2ccc3c(c2)OCO3)[n+]2ccc(N(C)C)cc2)c(C)c1 | inconclusive: 3.09% | – |
| CC1CC(C)CN(c2ccc(NS(=O)(=O)c3ccccc3)cc2C(=O)O)C1 (centres undefined) | inconclusive: 14.8% | – |
| COc1ccc(CNC(=O)C[C@H]2C(=O)N(Cc3ccccc3)C[C@@H]2Cc2ccccc2)cc1 | inconclusive: -40% | – |
| O=C(Cc1ccc(F)cc1)NC1CCS(=O)(=O)C1 (centres undefined) | inconclusive: -2.49% | – |
| O=C(Cn1nnc2ccccc21)OCC(=O)c1ccccc1 | inactive | – |
| CCN1CCN(Cc2c(O)ccc3c2O/C(=C\c2ccc(C)cc2)C3=O)CC1 | inconclusive: 9.28% | – |
| OC1(c2ccc(Cl)cc2)CCN(Cc2nc(-c3cnccn3)no2)CC1 | inconclusive: 8.59% | – |
| COc1ccccc1-n1c(CCC(=O)O)ccc1-c1ccccc1 | inconclusive: 13% | – |
| CC1CCCN(S(=O)(=O)c2ccc3c(c2)c(=O)nc2ccccn23)C1 (centres undefined) | – | inconclusive: 0.82 µM [falling, single point] |
| CCOC(=O)c1c(CN2CCOCC2)n(C)c2cc(Br)c(O)c(CN(C)C)c12 | inconclusive: -10.8% | – |
| O=C(Nc1ccc2nc(-c3ccc(Br)o3)[nH]c2c1)c1cccs1 | inconclusive: 47.1% | – |
| COc1ccc(OC)c(NC(=O)CCNS(=O)(=O)c2cc(Br)cnc2N)c1 | inconclusive: -9.45% | – |
| CC(C)Cn1c(SCC(=O)NC(=O)Nc2ccc3c(c2)OCCO3)nc2ccccc2c1=O | – | inconclusive: 29.1 µM [activator, single point] |
| O=C(Nc1ccccn1)c1ccc2c(c1)OCO2 | inconclusive: 11% | – |
| COCC(C)NC(=O)c1cccc(Cl)c1 (centres undefined) | inconclusive: 8.88% | – |

Record cards, as listed above. Order of values: lipid storage change, negative = inhibition	Potency
`O=C(Cn1nnc2ccccc21)OCC(=O)c1ccccc1` is entered as inactive	–
`OC[C@H]1O[C@@H](Oc2ccc3cc(Br)ccc3c2)[C@H](O)[C@@H](O)[C@H]1O` is entered as inconclusive: 0.0253%	–

Filtered by structure, those above containing fluorine.

| Structure (SMILES) | lipid storage change, negative = inhibition | Potency |
| --- | --- | --- |
| C=CCn1c(COc2ccc(F)cc2)nnc1SC(C)C(=O)NCC1CCCO1 (centres undefined) | inconclusive: -43.7% | – |
| O=C(Cc1ccc(F)cc1)NC1CCS(=O)(=O)C1 (centres undefined) | inconclusive: -2.49% | – |

The listing continues:

| Structure (SMILES) | lipid storage change, negative = inhibition | Potency |
| --- | --- | --- |
| CN(C)S(=O)(=O)c1ccc(NC(=O)Cn2ccsc2=N)cc1 | – | inconclusive: 29.1 µM [falling, single point] |
| COc1ccc(CCNS(=O)(=O)c2cccc3nsnc23)cc1OC | inconclusive: -4.97% | – |
| COc1ccc([N+](=O)[O-])cc1NC(=O)C(C)OC(=O)C1CCCC1 (centres undefined) | – | inconclusive: 29.1 µM [falling, partial curve, poor fit] |
| CCN(CC)CCN(C(=O)c1cc2ccccc2cc1OC)c1nc2ccc(F)cc2s1 | – | inconclusive: 29.1 µM [activator, partial curve, poor fit] |
| CC(=O)COC(=O)c1ccc2noc(-c3ccccc3)c2c1 | inconclusive: -19.5% | – |
| CCOC(=O)CC1C(=O)NCCN1C1CCCC1 (centres undefined) | – | inconclusive: 2.31 µM [falling, single point] |
| Cc1ccc(CNC(=O)C2CCCN2S(=O)(=O)c2ccc3c(c2)C(C)(C)C(=O)N3C)cc1 (centres undefined) | – | inconclusive: 13 µM [activator, partial curve, poor fit] |
| NC(=O)C1CCN(C(=O)c2cc3c(s2)CCCC3)CC1 | inconclusive | – |
| CCN1C(=O)C(CC(=O)Nc2ccc(C)cc2C)Nc2cc(S(=O)(=O)N(C)C)ccc21 (centres undefined) | inconclusive: 5.71% | – |
| COc1cc(NC(=O)CSc2ccc(-c3ccccn3)nn2)cc(OC)c1 | – | inconclusive: 16.4 µM [falling, single point] |
| CCOC(=O)/C(=C/c1ccc(OC(=O)c2ccncc2)cc1)C(C)=O | inconclusive: -48.6% | – |
| Cc1cc(-c2[nH]nc3c2C(c2ccsc2)C(C#N)=C(N)O3)c(C)s1 (centres undefined) | – | inconclusive: 4.61 µM [activator, partial curve, poor fit] |
| COC(=O)COc1ccc(S(=O)(=O)Nc2cc([N+](=O)[O-])ccc2C)cc1 | inconclusive: 49.4% | – |
| CCOc1ccccc1OCCOc1ccccc1OC(C)C | inconclusive: 2.49% | – |
| CC(=O)Nc1ccc(S(=O)(=O)N[C@@H](C)C(=O)OCC(=O)NC2CCCC2)cc1 | inconclusive: 10.1% | – |
| CCOC(=O)c1ccc(NS(=O)(=O)N2CCCCCC2)cc1 | inconclusive: -4.48% | – |
| O=C(C1COc2ccccc2O1)N1CCN(c2ccccc2O)CC1 (centres undefined) | inactive | – |
| CC(=O)c1ccc(S(=O)(=O)Nc2ccc(-c3ccc4nnc(C)n4n3)cc2)cc1 | inconclusive: -1.06% | – |
| CCCCNS(=O)(=O)c1ccc(NC(=O)C2c3ccccc3Oc3ccccc32)cc1 | inconclusive: -21.4% | – |
| Cc1ccc(S(=O)(=O)NCC(=O)OC(C)C(=O)NC(=O)NC2CCCCC2)cc1C (centres undefined) | inconclusive: -31.4% | – |
| COc1ccc(NC(=O)C2CCCN2S(=O)(=O)c2ccc(C)cc2)cc1 (centres undefined) | inconclusive: -31.8% | – |
| CCOC(=O)c1sc(NC(=O)c2ccoc2C)c(C(N)=O)c1C | – | active: 0.731 µM |
| O=C(CCCc1nc2ccccc2s1)NNC(=O)CCN1CCN(Cc2ccccc2)CC1 | inconclusive: 21.9% | – |
| Cc1ccc(Nc2c(-c3ccccn3)nc3cc(C)ccn23)cc1 | – | inconclusive: 29.1 µM [cytotoxic, single point] |
